Data on 1 molecule can be found in patent publication US20250319180A1.

The chains behind the UniProt entries cited, without tags or fusion partners. Where a name states a change or a piece, a line headed by the entry shows the natural chain unless it says otherwise.
UniProt Q9WUC3: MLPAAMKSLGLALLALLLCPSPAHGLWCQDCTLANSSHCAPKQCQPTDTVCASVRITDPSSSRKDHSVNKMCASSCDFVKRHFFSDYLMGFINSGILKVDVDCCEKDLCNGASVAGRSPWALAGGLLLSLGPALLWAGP

No constants are given. Whether binding was seen depends on the method and setting.

In the experiment the target is mouse LY6H expressed on 293T cells (plasmid BBP494, M1-P160 plus Myc-DDK) (mouse) (UniProt Q9WUC3). Briefly: flow cytometry on 293 cells expressing mouse LY6H (293-neo-mouse LY6H); solid histogram = hIgG1 control. For orientation: Flow cytometry measures light scatter and fluorescence of single cells or particles in a stream.

B1: 12G7 (antibody, V domains shown)
VH: QVQLQQWGAGLLKPSETLSLTCAVYGGSFSGYYWSWIRQPPGKGLEWIGEINHSGSTYYNPSLKSRVTMSVDTSKNQFSLKLSSVTAADTAVYYCAKRWELGAFDIWGQGTMVTVSS
VL: DIQMTQSPSSLSASVGDRVTITCRASQGISNYLAWYQQKPGKVPKLLIYAASTLQSGVPSRFSGSGSGTDFTLTISSLQPEDVATYYCQKYNSAPRTFGQGTKLEIK
In the case of B1, the binding entry is reported as “no binding (tested: 1 ug/ml (not on the sheet))”.
